Taken from: PubChem BioAssay AID1259308 (NCATS, 2017)

- Aim: 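Genes whose loss raises luciferase production in HEK293 cells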 (primary screen)
- Cell system: human HEK293 embryonic kidney cells stably expressing firefly luciferase (HEK-CMV-Luc2-Hygro)
- Knock-down reagent: single siRNA against human genes, 0.8 pmol siRNA per well
- Timing: 72 h
- Measurement: 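Reporter luminescence and viable-cell signal on separate replicate plates, given as percent of non-targeting control and median/MAD z-scores, plus per-cell luciferase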
- Direction: total luciferase, z-score and total luciferase, % of control: higher = more reporter protein produced; luciferase per cell, z-score: higher = more reporter output per viable cell
- Active means: 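Active when the median/MAD z-score for overall luciferase is greater than 3; a gene was taken forward for validation with new siRNAs if at least two of its three siRNAs passed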
- Calls: active = raised luciferase; inactive = no rise
In all, the deposit lists about 59,000 reagents; shown is an unselected part. Of all reagents, about 1,510 (2.6%) are marked active. 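Calls use total luciferase alone and ignore viability, so some active siRNAs may act by altering cell number.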 Reagents against one gene are numbered here. Not all columns of the deposit are shown. Reagent sequences are not shown.

| total luciferase, z-score | total luciferase, % of control | luciferase per cell, z-score | outcome | gene | reagent |
| --- | --- | --- | --- | --- | --- |
| -1.5 | 52 | -1.13 | inactive | NME2 (GeneID 4831) | 1 |
| 0.62 | 94.2 | 0.976 | inactive | NME2 (GeneID 4831) | 2 |
| 0.362 | 89.1 | -0.00434 | inactive | NME2 (GeneID 4831) | 3 |
| 0.45 | 90.8 | -0.0898 | inactive | CIAO2A (GeneID 84191) | 1 |
| -2.05 | 41.1 | -2.2 | inactive | CIAO2A (GeneID 84191) | 2 |
| 1.07 | 103 | -0.224 | inactive | CIAO2A (GeneID 84191) | 3 |
| 1.09 | 103 | 0.338 | inactive | YBX2 (GeneID 51087) | 1 |
| 0.725 | 96.3 | 0.909 | inactive | YBX2 (GeneID 51087) | 2 |
| 1.21 | 106 | 0.717 | inactive | YBX2 (GeneID 51087) | 3 |
| -1.7 | 48.1 | -1.36 | inactive | CT47A11 (GeneID 255313) | 1 |
| 0.327 | 88.4 | 0.362 | inactive | CT47A11 (GeneID 255313) | 2 |
| -0.613 | 69.7 | -0.674 | inactive | CT47A11 (GeneID 255313) | 3 |
| -0.33 | 75.3 | -0.306 | inactive | ZNF671 (GeneID 79891) | 1 |
| -0.211 | 77.7 | -0.565 | inactive | ZNF671 (GeneID 79891) | 2 |
| 0.705 | 95.9 | 0.0877 | inactive | ZNF671 (GeneID 79891) | 3 |
| 3.55 | 153 | 2.1 | active | TRPM2 (GeneID 7226) | 1 |
| 1.18 | 105 | 0.173 | inactive | TRPM2 (GeneID 7226) | 2 |
| 0.186 | 85.6 | -0.411 | inactive | TRPM2 (GeneID 7226) | 3 |
| 5.63 | 194 | 3.36 | active | ZFP41 (GeneID 286128) | 1 |
| -0.492 | 72.1 | 0.0415 | inactive | ZFP41 (GeneID 286128) | 2 |
| 0.731 | 96.4 | 0.626 | inactive | ZFP41 (GeneID 286128) | 3 |
| -2.91 | 23.9 | -4.85 | inactive | CLDN19 (GeneID 149461) | 1 |
| 1.05 | 103 | 0.66 | inactive | CLDN19 (GeneID 149461) | 2 |
| -0.72 | 67.6 | -1.03 | inactive | CLDN19 (GeneID 149461) | 3 |

Active calls, among the entries above:
| total luciferase, z-score | total luciferase, % of control | luciferase per cell, z-score | outcome | gene | reagent |
| --- | --- | --- | --- | --- | --- |
| 3.55 | 153 | 2.1 | active | TRPM2 (GeneID 7226) | 1 |
| 5.63 | 194 | 3.36 | active | ZFP41 (GeneID 286128) | 1 |
